No constants are given. Whether binding was seen depends on the method and setting. In cells and extracts the contact can be indirect. Some results given as binding are weak or reduced against the parent protein; the word gives no strength.

The source of these data is publication PMC4845015.

The target in this assay is T1, receptor-interacting serine/threonine kinase (RIPK) 1, mouse (mouse (endogenous in mouse brain)), Q60855.
T1 chain: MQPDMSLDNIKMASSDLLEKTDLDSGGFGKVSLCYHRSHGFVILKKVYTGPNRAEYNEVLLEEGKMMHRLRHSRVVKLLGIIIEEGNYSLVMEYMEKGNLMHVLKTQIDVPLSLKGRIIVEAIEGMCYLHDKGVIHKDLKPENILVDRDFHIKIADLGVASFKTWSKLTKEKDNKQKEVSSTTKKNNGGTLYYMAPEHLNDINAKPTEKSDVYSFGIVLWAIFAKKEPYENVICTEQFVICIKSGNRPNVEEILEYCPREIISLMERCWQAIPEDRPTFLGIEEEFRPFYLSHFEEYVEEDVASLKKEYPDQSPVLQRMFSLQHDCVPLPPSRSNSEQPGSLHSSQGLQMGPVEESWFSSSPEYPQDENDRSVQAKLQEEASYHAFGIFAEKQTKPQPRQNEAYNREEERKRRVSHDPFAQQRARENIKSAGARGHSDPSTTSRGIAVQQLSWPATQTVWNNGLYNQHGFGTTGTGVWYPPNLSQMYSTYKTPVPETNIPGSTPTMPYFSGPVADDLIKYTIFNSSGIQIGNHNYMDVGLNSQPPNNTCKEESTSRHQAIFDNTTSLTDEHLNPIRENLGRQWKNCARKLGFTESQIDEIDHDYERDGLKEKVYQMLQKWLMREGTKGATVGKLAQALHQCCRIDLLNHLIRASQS
The assay is described as follows: proximity ligation; Duolink In Situ PLA with anti-RIPK1 and anti-RIPK3 antibodies on paraffin-embedded brain sections (hippocampal area CA3) of 7-week-old Hrs flox/flox; CaMKIIα-cre mice. The following applies: remark: other sources report otherwise.

B1: receptor-interacting serine/threonine kinase (RIPK) 3, mouse, Q9QZL0 1-486 (protein)
chain: MSSVKLWPTGASAVPLVSREELKKLEFVGKGGFGVVFRAHHRTWNHDVAVKIVNSKKISWEVKAMVNLRNENVLLLLGVTEDLQWDFVSGQALVTRFMENGSLAGLLQPECPRPWPLLCRLLQEVVLGMCYLHSLNPPLLHRDLKPSNILLDPELHAKLADFGLSTFQGGSQSGSGSGSGSRDSGGTLAYLDPELLFDVNLKASKASDVYSFGILVWAVLAGREAELVDKTSLIRETVCDRQSRPPLTELPPGSPETPGLEKLKELMIHCWGSQSENRPSFQDCEPKTNEVYNLVKDKVDAAVSEVKHYLSQHRSSGRNLSAREPSQRGTEMDCPRETMVSKMLDRLHLEEPSGPVPGKCPERQAQDTSVGPATPARTSSDPVAGTPQIPHTLPFRGTTPGPVFTETPGPHPQRNQGDGRHGTPWYPWTPPNPMTGPPALVFNNCSEVQIGNYNSLVAPPRTTASSSAKYDQAQFGRGRGWQPFHK
For the molecule B1, the binding result was “binds”.
